Reference: PMC8435636
These are yes or no findings as the source states them, for the method shown. Binding seen in cells or lysates may run through a third protein. Some entries that bind do so weakly or less than the wild type.

Amino acid sequences for entries named in this document (tags omitted).
UniProt Q9UBN7: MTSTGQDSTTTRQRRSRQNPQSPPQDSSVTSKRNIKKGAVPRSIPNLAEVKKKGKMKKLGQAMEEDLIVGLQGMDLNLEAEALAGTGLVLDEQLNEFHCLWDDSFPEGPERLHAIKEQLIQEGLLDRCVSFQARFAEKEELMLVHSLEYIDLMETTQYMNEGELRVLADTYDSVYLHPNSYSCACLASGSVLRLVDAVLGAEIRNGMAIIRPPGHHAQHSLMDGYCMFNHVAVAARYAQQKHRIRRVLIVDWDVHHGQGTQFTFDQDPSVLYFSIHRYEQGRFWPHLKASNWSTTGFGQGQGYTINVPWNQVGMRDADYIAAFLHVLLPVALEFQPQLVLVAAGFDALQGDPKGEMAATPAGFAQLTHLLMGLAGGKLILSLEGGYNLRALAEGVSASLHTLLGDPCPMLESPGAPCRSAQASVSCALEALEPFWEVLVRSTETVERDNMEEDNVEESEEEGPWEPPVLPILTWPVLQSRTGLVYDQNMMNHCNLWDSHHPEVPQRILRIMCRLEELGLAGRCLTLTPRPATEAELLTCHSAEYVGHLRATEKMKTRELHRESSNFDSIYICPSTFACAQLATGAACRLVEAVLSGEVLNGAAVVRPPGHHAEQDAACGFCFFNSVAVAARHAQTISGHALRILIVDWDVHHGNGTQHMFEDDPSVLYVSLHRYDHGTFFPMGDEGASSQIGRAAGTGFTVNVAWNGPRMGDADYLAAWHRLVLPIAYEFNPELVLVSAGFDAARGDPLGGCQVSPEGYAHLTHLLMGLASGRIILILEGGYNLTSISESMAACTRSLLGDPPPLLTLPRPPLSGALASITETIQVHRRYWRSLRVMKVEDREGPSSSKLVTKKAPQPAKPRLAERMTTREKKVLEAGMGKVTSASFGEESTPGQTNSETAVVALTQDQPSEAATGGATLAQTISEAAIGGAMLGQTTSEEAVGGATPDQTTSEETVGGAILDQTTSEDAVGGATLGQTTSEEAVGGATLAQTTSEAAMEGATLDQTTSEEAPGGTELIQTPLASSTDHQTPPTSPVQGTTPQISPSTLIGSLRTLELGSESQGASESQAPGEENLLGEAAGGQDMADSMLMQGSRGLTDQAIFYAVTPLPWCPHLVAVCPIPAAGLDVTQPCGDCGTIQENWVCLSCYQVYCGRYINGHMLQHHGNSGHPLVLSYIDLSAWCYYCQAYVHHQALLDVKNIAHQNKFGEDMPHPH
UniProt P84022: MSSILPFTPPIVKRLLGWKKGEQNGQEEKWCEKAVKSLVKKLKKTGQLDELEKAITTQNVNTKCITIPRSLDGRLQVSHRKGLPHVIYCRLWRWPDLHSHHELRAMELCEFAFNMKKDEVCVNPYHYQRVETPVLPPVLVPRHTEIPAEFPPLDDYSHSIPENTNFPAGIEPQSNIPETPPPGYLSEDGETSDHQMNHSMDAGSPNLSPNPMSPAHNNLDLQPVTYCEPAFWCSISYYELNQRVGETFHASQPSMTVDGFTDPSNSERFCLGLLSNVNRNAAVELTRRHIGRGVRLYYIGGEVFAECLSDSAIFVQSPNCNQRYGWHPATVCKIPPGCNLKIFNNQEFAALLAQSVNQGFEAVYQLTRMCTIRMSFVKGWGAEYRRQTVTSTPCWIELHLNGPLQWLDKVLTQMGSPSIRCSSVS

Target: histone deacetylase 6 (human (endogenous in HPMCs)) (UniProt Q9UBN7)
Experiment: co-IP; HPMCs starved 24 h, IL-6 (100 ng/ml) 36 h; non-denaturing lysis buffer; HDAC6 or IgG antibody immobilised on AminoLink Plus resin (Pierce co-IP kit), incubated with lysate overnight; immunoblot for Smad3, HDAC6 and GAPDH

binding: binds
Substance: Smad3 (from UniProt P84022 1-425)
